Test results as given in publication PMC10974084, “Combination of Betulinic Acid Fragments and Carbonic Anhydrase Inhibitors—A New Drug Targeting Approach” (Pharmaceutics, 2024).

Tests used:
Format in all cases: cell-based
[1] = system: A2780 ovarian cancer cells; experiment: SRB cytotoxicity assay, A2780; details: Homo sapiens, 96 h incubation, mean ± SD
Protocol: (§1) All of the compounds were dissolved in dimethyl sulfoxide (DMSO) to achieve a 20 mM stock solution. Cells were seeded in cell culture flasks 24 h before treatment. The treatment was performed for 24 h.
(§2) The cytotoxicity of the drugs was determined in 2D tumor models using sulforhodamine B (SRB) assays. Treatment started 24 h after seeding the tumor cells in 96-well plates as previously described.

A375 melanoma cells = experiment: SRB cytotoxicity assay, A375; details: Homo sapiens, A-375, 96 h incubation, mean ± SD
Protocol: as §1, §2

[2] = system: MCF-7 breast cancer cells; experiment: SRB cytotoxicity assay, MCF-7; details: Homo sapiens, MCF7, 96 h incubation, mean ± SD
Protocol: as §1, §2

Measured: IC50

CC(=O)Nc1nnc(S(N)(=O)=O)s1 [AZA, acetazolamide, reference compound]
> 100 µM: all assays above
